Reference: PMC10289747
These are yes or no findings as the source states them, for the method shown. In cells and extracts the contact can be indirect. Some results given as binding are weak or reduced against the parent protein; the word gives no strength. Where a sequence is shown, tags or fusion partners need not be part of it.

Experiments:
[1] = target: T1, MAX (MYC-associated factor X), mouse, endogenous (mouse (endogenous in mouse liver)), P28574; assay: co-IP; cholangiocytes isolated from CCA and control mouse liver, then western blotting; settings: remark: other sources report otherwise
[2] = target: T1, MAX (MYC-associated factor X), mouse, …; assay: co-IP; anti-MAX antibody, then western blotting; cytoplasm and nucleus from CCA and normal mouse liver; settings: remark: other sources report otherwise

B1: C-MYC, mouse, endogenous, P01108 1-454 (protein)
chain: MDFLWALETPQTATTMPLNVNFTNRNYDLDYDSVQPYFICDEEENFYHQQQQSELQPPAPSEDIWKKFELLPTPPLSPSRRSGLCSPSYVAVATSFSPREDDDGGGGNFSTADQLEMMTELLGGDMVNQSFICDPDDETFIKNIIIQDCMWSGFSAAAKLVSEKLASYQAARKDSTSLSPARGHSVCSTSSLYLQDLTAAASECIDPSVVFPYPLNDSSSPKSCTSSDSTAFSPSSDSLLSSESSPRASPEPLVLHEETPPTTSSDSEEEQEDEEEIDVVSVEKRQTPAKRSESGSSPSRGHSKPPHSPLVLKRCHVSTHQHNYAAPPSTRKDYPAAKRAKLDSGRVLKQISNNRKCSSPRSSDTEENDKRRTHNVLERQRRNELKRSFFALRDQIPELENNEKAPKVVILKKATAYILSIQADEHKLTSEKDLLRKRREQLKHKLEQLRNSGA
binding [1]: binds
binding [2]: binds
